Laboratory results taken from PubChem BioAssay AID1671190 (National Center for Advancing Translational Sciences (NCATS), 2021).
The whole screen tested about 580,000 compounds, of which about 6,100 (1.1%) were called active. The shares of active, inactive and inconclusive entries below differ from those in the screen. Calls follow the shape of the dose curve; as a rule, active = well fitted inhibition curve with a large enough effect; inconclusive = small, poorly fitted or top-dose-only effect, or another doubt; inactive = no such curve, though single readings can be large or run the other way. Where the call is inconclusive, the potency comes from a doubtful curve fit.
% is scaled to controls: 0 for no effect and ±100 for the full control effect; potency is read from the fitted curve at half-maximal effect.

The chains behind the UniProt entries cited, without tags or fusion partners. Where a name states a change or a piece, a line headed by the entry shows the natural chain unless it says otherwise.
UniProt P18054: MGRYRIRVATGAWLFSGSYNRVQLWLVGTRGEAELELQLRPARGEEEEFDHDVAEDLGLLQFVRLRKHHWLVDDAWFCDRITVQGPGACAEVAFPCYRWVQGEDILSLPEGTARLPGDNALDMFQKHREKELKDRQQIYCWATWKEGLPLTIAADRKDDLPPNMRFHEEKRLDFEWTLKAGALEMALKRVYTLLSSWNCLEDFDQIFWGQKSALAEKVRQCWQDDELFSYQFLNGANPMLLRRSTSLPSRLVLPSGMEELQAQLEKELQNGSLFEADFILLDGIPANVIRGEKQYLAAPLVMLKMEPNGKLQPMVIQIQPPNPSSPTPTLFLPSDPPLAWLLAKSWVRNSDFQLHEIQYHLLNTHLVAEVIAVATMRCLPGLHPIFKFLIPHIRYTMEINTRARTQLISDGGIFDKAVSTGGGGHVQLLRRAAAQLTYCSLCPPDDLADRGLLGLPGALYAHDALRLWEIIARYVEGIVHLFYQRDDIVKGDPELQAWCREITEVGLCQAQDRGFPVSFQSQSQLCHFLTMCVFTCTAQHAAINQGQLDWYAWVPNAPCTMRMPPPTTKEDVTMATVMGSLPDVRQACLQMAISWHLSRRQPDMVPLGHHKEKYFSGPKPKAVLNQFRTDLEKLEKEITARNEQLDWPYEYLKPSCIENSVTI

Each compound was assayed against Polyunsaturated fatty acid lipoxygenase ALOX12 (Homo sapiens) (UniProt P18054) (assay: Primary qHTS assay for inhibitors of human arachidonate 12S-lipoxygenase (ALOX12): Round 2). Conditions: purified 12hLO, xylenol orange hydroperoxide absorbance; activity change, negative = inhibition: at 108 µM (top of the series) unless noted.
Procedure, shortened: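 Purified human 12hLO at 150 nM in 25 mM Hepes, 0.01% Triton X-100, pH 7.0, preincubated 15 min at room temperature with compound. Reaction started with 40 uM arachidonic acid, 30 min at room temperature. Hydroperoxide measured by Fe-xylenol orange, 573/405 nm absorbance ratio.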
For `CCCS(=O)(=O)NC(=O)C1(C)CCN(C(=O)c2oc3ccccc3c2C)C1` (centres undefined), the Potency was inconclusive: 35.5 µM [inhibitor, single point].
With `Cc1nnc(NCc2ccc(Cl)cc2)c2c1nnn2Cc1ccc(F)cc1` the “activity change, negative = inhibition” value was inactive: 6.57%.
In the case of `COC(=O)CCC(=O)Nc1sc(Cc2ccccc2)c(C)c1C(N)=O`, the Potency is reported as active: 20 µM.
With `N#Cc1ccc(CNCCN2CCCC2)cc1` the Potency was inconclusive: 6.31 µM [inhibitor, full curve].
In the case of `O=C(NC1(O)C(=O)c2ccccc2C1=O)c1ccc(C(F)(F)F)cc1`, the Potency is reported as inconclusive: 126 µM [inhibitor, single point].
For `Cc1ccc(S(=O)Cc2nc(-c3ccc(C(=O)NCCN4CCCCC4)cc3)oc2C)cc1` (centres undefined), the Potency was inconclusive: 35.5 µM [inhibitor, full curve, poor fit].
With `O=C(NCc1ccccc1)C1CCN(S(=O)(=O)/C=C/c2ccccc2)CC1` the “activity change, negative = inhibition” value was inactive: 12%.
For `Cc1ccc(NC(=O)/C(C#N)=C\c2ccccc2OC(F)F)cc1`, the Potency was inconclusive: 31.6 µM [inhibitor, partial curve, poor fit].
With `COc1cc(/C=C/c2nc3ccccc3c(=O)n2-c2ccc(C(=O)O)cc2)ccc1O` the Potency was inconclusive: 7.08 µM [inhibitor, full curve].
With `CCOC(=O)C1(CCc2ccccc2)CCN(C2Cc3ccccc3C2)CC1` the “activity change, negative = inhibition” value was inactive: -9.46%.
With `COc1ccc(OC)c(Nc2nc(C)nc3c2oc2ccccc23)c1` the “activity change, negative = inhibition” value was inactive: -28.3%.
In the case of `O=C(N1CCCCC1)N1CCN([S+](=O)([O-])c2ccc(Cl)nc2)C(=O)C1`, the Potency is reported as inconclusive: 0.891 µM [inhibitor, full curve, poor fit].
In the case of `COc1ccccc1N(C)S(=O)(=O)c1ccc(C(=O)O)cc1`, the “activity change, negative = inhibition” value is reported as inactive: -16.6%.
With `Cc1cccc2c(=O)c3c(O)cc(OCC(=O)Nc4ccc(Br)cc4)cc3oc12` the “activity change, negative = inhibition” value was inactive: 8.37%.
In the case of `CCOC(=O)C1=C(CNCc2cccc(C)c2)NC(=O)NC1c1cc(C)ccc1C` (centres undefined), the “activity change, negative = inhibition” value is reported as inactive: 2.59%.
For `Cc1ccc(NC(=O)c2noc3c2CCC3)cc1C`, the “activity change, negative = inhibition” value was inactive: -0.289%.
With `C=CCC[C@H](Cc1ccc(F)cc1)C(=O)OC[C@@H](Cc1c[nH]c2ccccc12)NC(=O)[C@@H](CC=C)CC(=O)N(CCO)Cc1ccccc1` the Potency was inconclusive: 44.7 µM [inhibitor, partial curve, poor fit].
`Cc1ccc(-c2cc(C(=O)OCC(=O)NC(=O)NC(C)C)c3ccccc3n2)o1` was tested, and the Potency was inconclusive: 8.91 µM [inhibitor, full curve, poor fit].
`COc1cccc(OC)c1C(=O)NCCc1c[nH]c2ccccc12` was tested, and the “activity change, negative = inhibition” value was inactive: 38.1%.
In the case of `Cc1cccc(C)c1NC(=O)CO/N=C/c1ccccc1O`, the Potency is reported as inconclusive: 0.891 µM [inhibitor, full curve, poor fit].
`COCCN(C(=O)CSc1nc2ccc(Cl)cc2[nH]1)c1c(N)n(Cc2ccccc2)c(=O)[nH]c1=O` was tested, and the Potency was inconclusive: 39.8 µM [inhibitor, partial curve].
In the case of `Cc1cc(C)cc(NC(=O)CCc2c(C)nn(-c3ccc(N4CCCCC4)nn3)c2C)c1`, the “activity change, negative = inhibition” value is reported as inactive: 10.1%.
With `O=C1NC2(CCN(Cc3ccc(F)cc3)C2)Oc2ccccc21` (centres undefined) the Potency was inconclusive: 31.6 µM [inhibitor, full curve].
For `COc1ccc(NC(=O)C(C)n2cccn2)cc1Cl` (centres undefined), the Potency was inconclusive: 44.7 µM [inhibitor, partial curve, poor fit].
`CCCC(CCC)C(=O)Nc1cccc(-c2nc3cccnc3s2)c1C` was tested, and the Potency was inconclusive: 141 µM [inhibitor, partial curve, poor fit].
In the case of `OCC1(Cc2cccc(C(F)(F)F)c2)CCN(Cc2cc3ccccc3o2)CC1`, the Potency is reported as inconclusive: 50.1 µM [inhibitor, partial curve, poor fit].
`CN(CCC#N)S(=O)(=O)c1cc(Br)ccc1Br` was tested, and the Potency was inconclusive: 44.7 µM [inhibitor, partial curve, poor fit].
For `Cc1ccc2c(C)cc(SCC(=O)Nc3cccc(F)c3)nc2c1`, the “activity change, negative = inhibition” value was inactive: -7.88%.
For `O=S(=O)(NCC(c1cccnc1)N1CCN(c2ccc(F)cc2)CC1)c1cc(F)ccc1F` (centres undefined), the “activity change, negative = inhibition” value was inactive: 20.7%.
With `CNS(=O)(=O)Cc1ccc2[nH]cc(CCN(C)C)c2c1` the Potency was inconclusive: 0.0097 µM [inhibitor, full curve, poor fit].
With `COc1cc(NC(=O)c2ccco2)c(OC)cc1NC(=O)CSc1nnc(-c2cccs2)n1C` the “activity change, negative = inhibition” value was inactive: 0%.
`CCC(CNC(=O)c1cc2ccccc2oc1=O)c1ccccc1` (centres undefined) was tested, and the “activity change, negative = inhibition” value was inactive: 14.3%.
In the case of `CCc1ccc(OCCN)cc1`, the “activity change, negative = inhibition” value is reported as inactive: 34.9%.
In the case of `O=C(CN1C(=O)COc2ccccc21)NCCCN1CCOCC1`, the “activity change, negative = inhibition” value is reported as inactive: 7.47%.
For `Cc1ccc(C(=O)c2sc(Nc3cccc(Br)c3)nc2N)cc1`, the Potency was inconclusive: 28.2 µM [inhibitor, partial curve, poor fit].
With `Cc1nc2cc(NC(C)C(=O)Nc3cccc(Cl)c3Cl)ccc2o1` (centres undefined) the Potency was inconclusive: 44.7 µM [inhibitor, single point].
`Cn1cc(CC(=O)N2CCCc3ncc(C(=O)NCc4ccccc4)cc32)c2ccccc21` was tested, and the Potency was inconclusive: 126 µM [inhibitor, partial curve, poor fit].
In the case of `O=C(Cn1c(=O)n(-c2ccccc2)c(=O)c2sccc21)NC1CCc2ccccc21` (centres undefined), the Potency is reported as inconclusive: 56.2 µM [inhibitor, partial curve, poor fit].
With `CCCOc1cccc(C(=O)Nc2cc(-c3nc4ncccc4o3)ccc2OC)c1` the “activity change, negative = inhibition” value was inactive: 21.8%.
With `O=C(NCc1ccc(F)cc1)N1CC(Oc2ccc(-c3noc(-c4ccccc4)n3)cc2)C1` the “activity change, negative = inhibition” value was inactive: -1.45%.
In the case of `C[C@H](CO)N1C[C@H](C)[C@H](CN(C)Cc2ccc(Oc3ccccc3)cc2)Oc2ccc(NC(=O)Nc3cccc4ccccc34)cc2CC1=O`, the “activity change, negative = inhibition” value is reported as inactive: -3.27%.
In the case of `CCOCc1c(C(=O)NCC(c2ccco2)N2CCCC2)oc2ccccc12` (centres undefined), the Potency is reported as inconclusive: 126 µM [inhibitor, single point].
With `CCCCCCCCNc1ccccc1S(=O)(=O)NCc1ccccc1` the “activity change, negative = inhibition” value was inactive: 24.6%.
In the case of `Cc1ccccc1NC(=S)NCc1ccc(F)cc1`, the Potency is reported as inconclusive: 50.1 µM [inhibitor, partial curve, poor fit].
`c1ccc(Nc2ccc(NCCc3c[nH]c4ccccc34)cc2)cc1` was tested, and the Potency was inconclusive: 44.7 µM [inhibitor, partial curve, poor fit].
For `Cc1cccc(NS(=O)(=O)c2ccc(-c3cnc(C4CC4)o3)cc2)c1`, the Potency was inconclusive: 44.7 µM [inhibitor, partial curve].
For `CC(C)Cn1cnc2c1c(=O)n(CC(=O)Nc1ccc3c(c1)OCCO3)c(=O)n2CC(C)C`, the “activity change, negative = inhibition” value was inactive: -1.61%.
`CCOc1ccc(S(=O)(=O)N2CCOCC2)cc1NC(=O)CN1C(=O)NC(C)(C2CC2)C1=O` (centres undefined) was tested, and the Potency was inconclusive: 44.7 µM [inhibitor, partial curve, poor fit].
In the case of `COc1ccc(NC(=O)C2CCN(S(=O)(=O)c3ccc4[nH]c(=O)ccc4c3)CC2)cc1Cl`, the Potency is reported as inconclusive: 89.1 µM [inhibitor, partial curve, poor fit].
In the case of `Cc1ccc(OCC(=O)Nc2ccc(-c3nc4ncccc4o3)cc2)c(C)c1`, the Potency is reported as inconclusive: 14.1 µM [inhibitor, full curve].
For `CN[C@H](CC(C)C)C(=O)N[C@H]1C(=O)N[C@@H](CC(N)=O)C(=O)N[C@H]2C(=O)N[C@H]3C(=O)N[C@H](C(=O)N[C@H](C(=O)O)c4cc(O)cc(O)c4-c4cc3ccc4O)[C@H](O)c3ccc(c(Cl)c3)Oc3cc2cc(c3O[C@@H]2O[C@H](CO)[C@@H](O)[C@H](O)[C@H]2O[C@H]2C[C@](C)(N)[C@H](O)[C@H](C)O2)Oc2ccc(cc2Cl)[C@H]1O`, the Potency was inconclusive: 39.8 µM [inhibitor, single point].
With `CC(O)C(NS(=O)(=O)c1ccc(Cl)cc1)C(=O)OCCOc1ccc(F)cc1` (centres undefined) the Potency was inconclusive: 112 µM [inhibitor, single point].
In the case of `CCCc1c(C)nc2ccccc2c1SCCC#N`, the Potency is reported as inconclusive: 50.1 µM [inhibitor, partial curve, poor fit].
`O=S(=O)(Nc1nc2ccccc2nc1Nc1ccc(N2CCOCC2)cc1)c1cc(Cl)ccc1Cl` was tested, and the “activity change, negative = inhibition” value was inactive: 3.04%.
For `Fc1ccccc1/C=N/n1c(-c2cccnc2)n[nH]c1=S`, the Potency was inconclusive: 70.8 µM [inhibitor, partial curve, poor fit].
For `CC(C)CC1CC(C)(c2csc(NNC(=O)c3ccccc3)n2)OC1=O` (centres undefined), the Potency was inconclusive: 25.1 µM [inhibitor, partial curve].
With `CCN(C/C=C/c1ccccc1OC)Cc1ccccc1` the Potency was inconclusive: 0.282 µM [inhibitor, full curve, poor fit].
For `O=S(=O)(N[C@H]1CO[C@H]2[C@@H]1OC[C@@H]2n1cc(-c2ccccn2)nn1)c1cccc2cccnc12`, the Potency was inconclusive: 8.91 µM [inhibitor, full curve, poor fit].
`CCCCCC(=O)N1C[C@@H](n2cc(C3CC3)nn2)[C@H](O)C[C@@H]1c1ccc(Cl)cc1` was tested, and the Potency was inconclusive: 79.4 µM [inhibitor, single point].
With `O=C(CSc1ccsc1[N+](=O)[O-])Nc1cc(F)ccc1F` the Potency was inconclusive: 39.8 µM [inhibitor, partial curve].
With `COC1C(=O)N(c2cccc(F)c2)C12CCN(C(=O)C1CCOCC1)CC2` (centres undefined) the “activity change, negative = inhibition” value was inactive: 26.2%.
`COCCNc1nc(NCCNC(C)=O)c2sc(-c3ccccc3)cc2n1` was tested, and the Potency was inconclusive: 79.4 µM [inhibitor, single point].
With `COC(=O)c1ccc(/C=N/Nc2ccc(S(N)(=O)=O)cc2[N+](=O)[O-])cc1` the Potency was inconclusive: 39.8 µM [inhibitor, partial curve, poor fit].
With `COCC(=O)N1N=C(c2ccc3c(c2)OCO3)CC1c1ccc2nccnc2c1` (centres undefined) the Potency was inconclusive: 50.1 µM [inhibitor, partial curve, poor fit].
